Measured values as given in article doi:10.1101/2024.10.11.617944.
These are yes or no findings as the source states them, for the method shown. Binding can be weak; no strength is given. Tags and fused reporters may be left off the sequences shown. For some of these results: Binding seen in cells or lysates may run through a third protein. Each block holds one molecule with its values, some of them ahead of it.

Key:
[1] = molecular target: T1, AHG1, split YFP fusion (Arabidopsis thaliana) (UniProt Q9FLI3); experiment: split reporter
T1 sequence: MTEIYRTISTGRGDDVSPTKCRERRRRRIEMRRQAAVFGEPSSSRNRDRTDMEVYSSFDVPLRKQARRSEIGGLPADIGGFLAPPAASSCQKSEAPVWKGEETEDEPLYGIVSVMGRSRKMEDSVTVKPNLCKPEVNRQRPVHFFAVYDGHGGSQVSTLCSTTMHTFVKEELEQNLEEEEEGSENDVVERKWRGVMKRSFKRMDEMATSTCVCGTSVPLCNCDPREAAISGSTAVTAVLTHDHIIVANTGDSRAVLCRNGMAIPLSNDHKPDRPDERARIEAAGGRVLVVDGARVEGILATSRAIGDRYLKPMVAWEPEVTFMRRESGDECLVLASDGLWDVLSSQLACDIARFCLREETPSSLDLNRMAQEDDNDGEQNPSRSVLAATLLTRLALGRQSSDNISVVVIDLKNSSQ

[2] = molecular target: T2, SnRK2.3, split YFP fusion (Arabidopsis thaliana) (UniProt Q39193); experiment: split reporter
T2 sequence: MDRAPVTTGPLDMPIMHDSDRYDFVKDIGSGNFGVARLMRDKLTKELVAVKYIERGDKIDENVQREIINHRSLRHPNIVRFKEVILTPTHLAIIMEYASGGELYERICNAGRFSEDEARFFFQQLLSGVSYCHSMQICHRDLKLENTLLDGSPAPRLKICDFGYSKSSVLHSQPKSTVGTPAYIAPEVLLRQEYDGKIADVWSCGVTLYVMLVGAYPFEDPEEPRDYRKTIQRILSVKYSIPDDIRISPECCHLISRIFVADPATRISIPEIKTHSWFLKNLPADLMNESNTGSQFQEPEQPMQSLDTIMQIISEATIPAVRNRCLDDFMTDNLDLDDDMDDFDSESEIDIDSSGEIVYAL

two-hybrid = substrate: C domain of AFP1, yeast two-hybrid fusion (Arabidopsis thaliana); experiment: two-hybrid

Molecule: A domain of AFP1, split YFP fusion (Arabidopsis thaliana) (domain or fragment)
binding [1]: binds
binding [2]: binds

Molecule: A domain of AFP2, split YFP fusion (Arabidopsis thaliana) (domain or fragment)
binding [1]: binds
binding [2]: no binding

Molecule: B domain of AFP1, split YFP fusion (Arabidopsis thaliana) (domain or fragment)
binding [1]: binds
binding [2]: binds

Molecule: B domain of AFP2, split YFP fusion (Arabidopsis thaliana) (domain or fragment)
binding [1]: binds
binding [2]: binds

Molecule: C domain of AFP1, split YFP fusion (Arabidopsis thaliana) (domain or fragment)
binding [1]: binds
binding [2]: no binding

Molecule: C domain of AFP2, split YFP fusion (Arabidopsis thaliana) (domain or fragment)
binding [1]: binds
binding [2]: binds

binding (two-hybrid): binds
B1: ABA-… …ON 1 (AHG1), AD fusion (enzyme, UniProt Q9FLI3 1-416)
chain: MTEIYRTISTGRGDDVSPTKCRERRRRRIEMRRQAAVFGEPSSSRNRDRTDMEVYSSFDVPLRKQARRSEIGGLPADIGGFLAPPAASSCQKSEAPVWKGEETEDEPLYGIVSVMGRSRKMEDSVTVKPNLCKPEVNRQRPVHFFAVYDGHGGSQVSTLCSTTMHTFVKEELEQNLEEEEEGSENDVVERKWRGVMKRSFKRMDEMATSTCVCGTSVPLCNCDPREAAISGSTAVTAVLTHDHIIVANTGDSRAVLCRNGMAIPLSNDHKPDRPDERARIEAAGGRVLVVDGARVEGILATSRAIGDRYLKPMVAWEPEVTFMRRESGDECLVLASDGLWDVLSSQLACDIARFCLREETPSSLDLNRMAQEDDNDGEQNPSRSVLAATLLTRLALGRQSSDNISVVVIDLKNSSQ
